Taken from: PubChem BioAssay AID1259326 (Drosophila RNAi Screening Center, 2017)
This is a random part of 573 reagents. 39 of all reagents (6.8%) count as active. 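All actives have raised ATP, meaning more surviving cells; in these data active calls sit at averaged z-scores near 1.5 or above.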 Raw values vary from plate to plate and are shown uncorrected. Reagents against one gene are numbered here. Not given: the amount of reagent.

Screen: 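Knock-downs that shift cellular ATP after a high zinc chloride dose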
Cell system: Drosophila S2R+ cells
Reagent: long dsRNA against Drosophila genes
Duration: about 5 days (4 days of RNAi, then 1 day of zinc)
Challenge: zinc chloride added to 15 mM final for one day
Measured: 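Luminescent ATP signal marks surviving cells, read after RNAi for 4 days then 15 mM zinc chloride for 1 day; z-scores are replicate means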
Direction: averaged z-score: higher = more ATP than other wells, i.e. more surviving cells, after zinc; ATP luminescence: higher = more ATP, i.e. more surviving cells
Hit rule: 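Called active when the averaged z-score lies outside -1.5 to 1.5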

no.	predicted target	reagent no.	averaged z-score	ATP luminescence, replicate 1	ATP luminescence, replicate 2	Outcome
1	Pten (Phosphatase and tensin homolog)	1	-0.165	1.00e5	74712	inactive
2	Pten (Phosphatase and tensin homolog)	2	-0.196	77508	75501	inactive
3	foxo (forkhead box, sub-group O)	1	-0.268	82053	77165	inactive
4	foxo (forkhead box, sub-group O)	2	-0.216	81470	64189	inactive
5	foxo (forkhead box, sub-group O)	3	0.188	67560	85261	inactive
6	whd (withered)	1	-0.131	78537	99860	inactive
7	whd (withered)	2	-0.0471	60683	77525	inactive
8	whd (withered)	3	1.37	92192	1.05e5	inactive
9	Ggamma1 (G protein gamma subunit 1)	1	-0.513	71777	94044	inactive
10	Ggamma1 (G protein gamma subunit 1)	2	-0.576	53704	74215	inactive
11	Rpt1 (Regulatory particle triple-A ATPase 1)	1	0.383	97196	88932	inactive
12	Rpt1 (Regulatory particle triple-A ATPase 1)	2	0.471	89104	83855	inactive
13	Rpt1 (Regulatory particle triple-A ATPase 1)	3	1.13	85604	94371	inactive
14	wal (walrus)	1	-0.19	97074	70530	inactive
15	wal (walrus)	2	-0.058	79017	73250	inactive
16	wal (walrus)	3	-0.066	67132	76084	inactive
17	Pi3K59F (Phosphatidylinositol 3-kinase 59F)	1	-0.176	84232	79412	inactive
18	Pi3K59F (Phosphatidylinositol 3-kinase 59F)	2	0.522	96728	81333	inactive
19	Pi3K59F (Phosphatidylinositol 3-kinase 59F)	3	-0.332	52538	75293	inactive
20	CCT2 (Chaperonin containing TCP1 subunit 2)	1	0.473	79137	84644	inactive
21	CCT2 (Chaperonin containing TCP1 subunit 2)	2	0.225	87766	88606	inactive
22	CCT2 (Chaperonin containing TCP1 subunit 2)	3	0.111	82654	78623	inactive
23	AMPKalpha (AMP-activated protein kinase alpha subunit)	1	-0.376	65021	63496	inactive
24	AMPKalpha (AMP-activated protein kinase alpha subunit)	2	-0.0318	97144	76753	inactive
25	AMPKalpha (AMP-activated protein kinase alpha subunit)	3	-0.03	81024	73272	inactive
26	Mcm2 (Minichromosome maintenance 2)	1	-0.238	1.02e5	69241	inactive
27	Mcm2 (Minichromosome maintenance 2)	2	-0.376	72938	69224	inactive
28	Mcm2 (Minichromosome maintenance 2)	3	-0.335	63702	74198	inactive
29	sima (similar)	1	-0.236	93598	70493	inactive
30	sima (similar)	2	0.00023	71951	77494	inactive
31	sima (similar)	3	0.285	93262	75879	inactive
32	Vps16A (Vacuolar protein sorting 16A)	1	-0.142	96087	72328	inactive
33	Vps16A (Vacuolar protein sorting 16A)	2	0.126	82105	70963	inactive
34	nudC	1	0.0365	73014	74129	inactive
35	nudC	2	0.0672	94908	75861	inactive
36	nudC	3	-0.468	76445	57185	inactive
37	Rpt3R (Regulatory particle triple-A ATPase 3-related)	1	-0.147	67423	76668	inactive
38	Rpt3R (Regulatory particle triple-A ATPase 3-related)	2	0.0154	97456	83855	inactive
39	Rpt3R (Regulatory particle triple-A ATPase 3-related)	3	-0.381	78606	58958	inactive
40	Ocrl (Oculocerebrorenal syndrome of Lowe)	1	0.0773	99740	75467	inactive
41	Ocrl (Oculocerebrorenal syndrome of Lowe)	2	0.193	75793	78653	inactive
42	Ocrl (Oculocerebrorenal syndrome of Lowe)	3	-0.61	72807	61078	inactive
43	Ask1 (Apoptotic signal-regulating kinase 1)	1	-0.216	93290	80424	inactive
44	Ask1 (Apoptotic signal-regulating kinase 1)	2	-0.311	68728	68139	inactive
45	Ask1 (Apoptotic signal-regulating kinase 1)	3	-0.31	54030	73649	inactive
46	ValRS-m (Valyl-tRNA synthetase, mitochondrial)	1	-0.613	83066	88572	inactive
47	ValRS-m (Valyl-tRNA synthetase, mitochondrial)	2	-0.128	73134	69087	inactive
48	Mpi (Mannose phosphate isomerase)	1	-0.0313	86290	1.01e5	inactive
49	Mpi (Mannose phosphate isomerase)	2	-0.276	69464	68041	inactive
50	Rab9Fb (Rab at 9Fb)	1	0.293	94902	1.05e5	inactive
51	Rab9Fb (Rab at 9Fb)	2	-0.104	72191	71827	inactive
52	INPP5E (Inositol polyphosphate 5-phosphatase E)	1	0.212	1.08e5	77800	inactive
53	INPP5E (Inositol polyphosphate 5-phosphatase E)	2	-0.173	79429	79926	inactive
54	INPP5E (Inositol polyphosphate 5-phosphatase E)	3	-0.558	60430	67200	inactive
55	Psa (Puromycin sensitive aminopeptidase)	1	-0.273	64285	96395	inactive
56	Psa (Puromycin sensitive aminopeptidase)	2	-0.176	63930	80064	inactive
57	Psa (Puromycin sensitive aminopeptidase)	3	-0.218	61198	74386	inactive
58	CG42233	1	-0.0834	66154	77714	inactive
59	CG42233	2	0.595	1.06e5	91677	inactive
60	CG42233	3	-0.315	79296	66669	inactive
61	Rala (Ras-like protein A)	1	-0.316	77286	92346	inactive
62	Rala (Ras-like protein A)	2	-0.144	71368	73024	inactive
63	Rala (Ras-like protein A)	3	0.342	84180	79400	inactive
64	Usp7 (Ubiquitin-specific protease 7)	1	-0.387	88812	72843	inactive
65	Usp7 (Ubiquitin-specific protease 7)	2	-0.00655	65571	79052	inactive
66	Usp7 (Ubiquitin-specific protease 7)	3	-0.43	78932	61421	inactive
67	FANCI (Fanconi anemia complementation group I)	1	-0.295	75090	84987	inactive
68	FANCI (Fanconi anemia complementation group I)	2	-0.433	64415	63684	inactive
